Data on four molecules can be found in patent US20120183489A1, “COMPOSITIONS COMPRISING METALLATED MALODOR CONTROL POLYMERS” (priority 2011, published 2012).

SMILES strings stand for the structures.

This series is described as follows: Fadometer test on treated fabric (yellowing under simulated sunlight). As to conditions: 1000 ppm aldehyde solution; 0.75 g on 10 cm x 10 cm swatch; 5 hours simulated sunlight, SUNTEST CPS+.
As for `CCCCC/C(C=O)=C/c1ccccc1` [amylic cinnamic aldehyde], the “Fadometer Test on treated Fabric (yellowing)” value is “Yellowish brown”.
For the molecule `CC(C)=CCC/C(C)=C/C=O` [citral aldehyde], the “Fadometer Test on treated Fabric (yellowing)” value is on record as “No yellowing”.
Next, `CC(C)=CCCC(C)CC=O` (stereo not shown) [citronellal]: “Yellowish brown”; `CCCCCCCCCCCC=O` [lauric aldehyde]: “No yellowing”.
